From the supplement of paper PMC5949888
Most values lie at the floor of the assay. Slopes are relative: functional sequences can read slightly below zero.

tested on: Saccharomyces cerevisiae PS128 hsf1 delta, HSF1(1-493) fusion; test: growth estimate (transactivation domain function in HSF1 fusion, heat-shock survival) (a.u. (slope of normalised read count over time)); higher = stronger growth at 37°C, i.e. more transactivation activity; conditions: library: random library
Description: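 Random 60-nt DNA library encoding peptides of up to 20 aa, fused to the C-terminus of yeast HSF1 residues 1-493 (C-terminal TAD deleted) and expressed from the native HSF1 promoter on a CEN plasmid in hsf1-deleted S. cerevisiae PS128. Cells were selected at 37°C on -trp 5-FOA plates for 0, 2, 4, 6 and 8 days and amplicons were sequenced. Growth estimate is the slope of a robust linear fit of total-sum-normalised read counts (normalised to the first time point) over time, using at least 2 replicates. Sequences are classed functional (TAD activity) above a threshold of -0.13, set from stop-codon control sequences.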

| Substance | growth estimate |
| --- | --- |
| CYKLTDFKLKDKEASIDT | < -0.25 |
| LGASQLDI | < -0.25 |
| PGFVSPIVDSLSLHVGSVAP | < -0.25 |
| ARRHIRRNMTSKFREL | < -0.25 |
| SSSVRKGN | -0.243 |
| LVRARAWYRKVNCRQDLRAV | < -0.25 |
| CKGSGQPAACSTQGATGVHF | < -0.25 |
| SGISLLTGNPRVKLSICGGC | < -0.25 |
| APTRNTAVSPFFCGVEYLVN | < -0.25 |
| ICTT | < -0.25 |
| RVTVSANLATPAHSLRKGWR | < -0.25 |
| REDSPRRSGHLMDVYIVHCA | < -0.25 |
| WLC | < -0.25 |
| GNVSDGVI | -0.151 |
| LFYRVRCSGVQLGTEDSHCA | < -0.25 |
| VGSRISIRARTIT | < -0.25 |
| LEVTGVAQPRLHCGWATVSP | < -0.25 |
| KLQRVLSCALRSPDEGKDLC | < -0.25 |
| DVHGSGPFCI | < -0.25 |
| MRCGR | -0.243 |
| IFCCRPRKCFRFPGTMDDVD | < -0.25 |
| SGV | < -0.25 |
| QFGRLEKYES | < -0.25 |
| HLSRLTVLVGDCNC | < -0.25 |
| ECGGLDFCM | < -0.25 |

| Substance | growth estimate |
| --- | --- |
| LLKLK | < -0.25 |
| SHTEGTGSGNQAGGSGLYMQ | < -0.25 |
| GHSRDFWPPKFPSGW | < -0.25 |
| NLFQMAWRGLVTTG | < -0.25 |
| SEVGGNRGGPTSKGYGHSRT | < -0.25 |
| GAVDWGTLTKNWLDGCHSG | 0.0021 |
| SQRDQK | < -0.25 |
| KRCEKGNADNVG | < -0.25 |
| LLSVCNLSRPGVREA | < -0.25 |
| HSRGSGRFG | < -0.25 |
| KNTAGRNARTPANSASVERL | < -0.25 |
| EMRVEDAVGGGPRWPR | < -0.25 |
| AGLTSHDRAVAETWLLAQRV | < -0.25 |
| KCLGMFRVW | < -0.25 |
| LLRPKGVQLYLSMHGGDVKV | < -0.25 |
| PAKSMSSSVPKSFDYAERYC | < -0.25 |
| LEAARTVIDQMYIE | < -0.25 |
| RSVATMAMSSPTCMSGKVHP | < -0.25 |
| NVLTRNALAIFMGLVTCISI | < -0.25 |
| RGSDGGALATKEG | < -0.25 |
| FWSMGYANAKEATTRFRKEI | < -0.25 |
| IPKITAIWEFCASYTRTKYP | < -0.25 |
| VQGPVVRKTFGIIS | < -0.25 |
| VLEPPSFGGGELEVPCNNSG | < -0.25 |
| HKY | < -0.25 |

| Substance | growth estimate |
| --- | --- |
| MVCSIVHWSTYVCTEVALES | < -0.25 |
| TVYLGNETSPLECCKLVPEC | < -0.25 |
| WLGVSAPGEVHILTGEMSRR | < -0.25 |
| GLLVYITHATILSLRYSPQE | < -0.25 |
| CWVGLSWASK | < -0.25 |
| LHRFRGRTVLVGWGGIRHLG | < -0.25 |
| RSPCGHAAPASLGSECDTGG | < -0.25 |
| GVGDYLLLDLMNTIWYMGKV | -0.173 |
| SSHQVSITGPRRFRKRQGRP | < -0.25 |
| TWERVIKGSRA | < -0.25 |
| ATDCLAPLAASGCLNLATCS | < -0.25 |
| VIYKG | < -0.25 |
| QMIVL | < -0.25 |
| YTPRGNRRSV | < -0.25 |
| VEEKGFCSV | < -0.25 |
| TTVIGSTLPLRVINCLGAWG | < -0.25 |
| TGSSRRGPLDCSSIPPHPAG | < -0.25 |
| GLFGYMTTVRQR | < -0.25 |
| RGSESIINVLTSPAQKPKRA | < -0.25 |
| GLRLITL | -0.246 |
| RMRVNLRIH | -0.243 |
| RGFPRVHESGPVFTSARRSW | < -0.25 |
| VVARESAQDAKFGSGASI | < -0.25 |
| QLPALRKNVDNAQSRTTHRN | < -0.25 |
| VSRRTGRKNVQGNVLTTRRR | < -0.25 |

| Substance | growth estimate |
| --- | --- |
| SCNDYPSLGSRRKFAHSDAP | < -0.25 |
| GAPRCQHTYKSRHDHGFRG | < -0.25 |
| MQALGDPGAGRSQRYNRRRV | < -0.25 |
| RSTQAGSRHRWRCLVCQLKS | < -0.25 |
| NLQRAML | < -0.25 |
| ECRQARAIYLRLVHPVVIQI | < -0.25 |
| TFQTA | < -0.25 |
| LYGGLIGTTVWKPSARDGRT | < -0.25 |
| VVYGSRNFGMYGEGGRQGRN | < -0.25 |
| LVFRRSRLCIPRLVKPSA | < -0.25 |
| SPRRR | < -0.25 |
| EGRAFDADRASGHLVTRNAA | < -0.25 |
| VGKTVNLHRGSTR | < -0.25 |
| RCLSDK | < -0.25 |
| GHHECRFNVSH | < -0.25 |
| ICFNRCC | < -0.25 |
| CMGSGLPCSGRFMIPSHKHG | < -0.25 |
| RNRKPGGTCHCR | -0.14 |
| SRAWHTSAGIPCKSERQATP | < -0.25 |
| LVCVGRIFACGPLHGPFYLR | < -0.25 |
| RVKLDSYLVPVDYVNVVRQG | < -0.25 |
| FTGTPNAKSFACLIECHMPC | < -0.25 |
| RNGSSDL | < -0.25 |
| SQGRIVVVV | < -0.25 |
| KRWFVGVFV | -0.0405 |

| Substance | growth estimate |
| --- | --- |
| GATFAHEVAGQWTAIALLAG | < -0.25 |
| WLRNYVGDRKQQ | < -0.25 |
| LRQECYPVRSLT | < -0.25 |
| ETPHHEDSCGSRLPLIAGVG | < -0.25 |
| IEFSDGACWSRLSSRHACLG | < -0.25 |
| VNNTVESAMINTFGRYRAQE | < -0.25 |
| CHFHRQG | < -0.25 |
| ELGPVGPKTRMESMGNSTRQ | < -0.25 |
| SGSSRLRSATRGESTR | < -0.25 |
| LVPSSFYRKPTIHEHHGPVQ | -0.245 |
| SAQCDPSVNDQTGRV | < -0.25 |
| SRCTGRRVP | < -0.25 |
| LTSCHGN | < -0.25 |
| ALYTHSGRTRRWRGRCECRM | -0.219 |
| NGYTPSAPHKT | < -0.25 |
| STKGSAQG | < -0.25 |
| DSVGGATTAYCCNISLSD | < -0.25 |
| NYYAE | < -0.25 |
| TWGATHR | < -0.25 |
| VKWLRERGIDQSLNRRGFG | < -0.25 |
| PHNVSQEPGCLQS | < -0.25 |
| GPTGWQFVLFGSS | < -0.25 |
| QNEVATNSEYQ | < -0.25 |
| TDC | < -0.25 |
| ISWNLQIYTLAV | < -0.25 |

| Substance | growth estimate |
| --- | --- |
| VNKYGSLESTLRKTLEWMPN | < -0.25 |
| GSSIQLLKL | < -0.25 |
| YPARTYA | < -0.25 |
| CDWVNLDTAGTRLCNISFGV | -0.118 |
| SCSEVYMEISRRY | < -0.25 |
| HSRRVRER | < -0.25 |
| AFRLRQTPLIRQSQSRCYVV | < -0.25 |
| DRGSTGRTNSIDRFPRSKRV | -0.244 |
| LTKRNGMG | < -0.25 |
| SGCLRTMFE | < -0.25 |
| KCSIAMCHEHGFIVRPRVAW | < -0.25 |
| VMLGSGCKGVTADE | < -0.25 |
| VAVI | < -0.25 |
| SRLQV | < -0.25 |
| MRGLGPRSRGPGKFTLRGHL | -0.245 |
| PYWGVAAT | < -0.25 |
| PIQAVGTGVNRKVLFDSPGE | < -0.25 |
| SAGVTAVLTVSMPRNDRPHS | < -0.25 |
| NSSISFTWLLVV | < -0.25 |
| GTLGGDMWY | 0.0049 |

A second format for part of the listing above.
Substance | growth estimate
PGFVSPIVDSLSLHVGSVAP | < -0.25
LVRARAWYRKVNCRQDLRAV | < -0.25
RVTVSANLATPAHSLRKGWR | < -0.25
VGSRISIRARTIT | < -0.25
DVHGSGPFCI | < -0.25
MRCGR | -0.243
ECGGLDFCM | < -0.25
KRCEKGNADNVG | < -0.25
IPKITAIWEFCASYTRTKYP | < -0.25
HKY | < -0.25
TVYLGNETSPLECCKLVPEC | < -0.25
RSPCGHAAPASLGSECDTGG | < -0.25
TWERVIKGSRA | < -0.25
VIYKG | < -0.25
QMIVL | < -0.25
YTPRGNRRSV | < -0.25
TTVIGSTLPLRVINCLGAWG | < -0.25
RGFPRVHESGPVFTSARRSW | < -0.25
QLPALRKNVDNAQSRTTHRN | < -0.25
SCNDYPSLGSRRKFAHSDAP | < -0.25
NLQRAML | < -0.25
RCLSDK | < -0.25
ICFNRCC | < -0.25
LVCVGRIFACGPLHGPFYLR | < -0.25
FTGTPNAKSFACLIECHMPC | < -0.25
LRQECYPVRSLT | < -0.25
ETPHHEDSCGSRLPLIAGVG | < -0.25
SGSSRLRSATRGESTR | < -0.25
LTSCHGN | < -0.25
VKWLRERGIDQSLNRRGFG | < -0.25
PHNVSQEPGCLQS | < -0.25
CDWVNLDTAGTRLCNISFGV | -0.118
SRLQV | < -0.25
PIQAVGTGVNRKVLFDSPGE | < -0.25

A different layout for part of the listing above:
Substance,growth estimate
CDWVNLDTAGTRLCNISFGV,-0.118
HSRRVRER,< -0.25
DRGSTGRTNSIDRFPRSKRV,-0.244
